We go through two molecules from doi:10.1101/768341.

Protein sequences, listed by entry. Tags and fused reporters are not part of them. Lines headed by an entry give the natural chain unless they say otherwise; changes in a name come on top.
UniProt P97546: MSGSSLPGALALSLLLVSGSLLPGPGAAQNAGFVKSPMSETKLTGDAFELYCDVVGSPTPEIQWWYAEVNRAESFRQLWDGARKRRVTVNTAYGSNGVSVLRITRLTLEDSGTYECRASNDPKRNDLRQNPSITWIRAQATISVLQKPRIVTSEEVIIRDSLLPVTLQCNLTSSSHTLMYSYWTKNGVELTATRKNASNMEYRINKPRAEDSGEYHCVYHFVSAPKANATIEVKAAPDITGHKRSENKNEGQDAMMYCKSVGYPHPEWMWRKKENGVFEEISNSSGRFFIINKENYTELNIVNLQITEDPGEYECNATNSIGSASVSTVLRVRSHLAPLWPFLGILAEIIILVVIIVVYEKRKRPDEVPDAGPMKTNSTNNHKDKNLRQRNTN

Experiment [1] deals with T1, GST-TRAF6 (mouse) (UniProt P70196).
T1 sequence: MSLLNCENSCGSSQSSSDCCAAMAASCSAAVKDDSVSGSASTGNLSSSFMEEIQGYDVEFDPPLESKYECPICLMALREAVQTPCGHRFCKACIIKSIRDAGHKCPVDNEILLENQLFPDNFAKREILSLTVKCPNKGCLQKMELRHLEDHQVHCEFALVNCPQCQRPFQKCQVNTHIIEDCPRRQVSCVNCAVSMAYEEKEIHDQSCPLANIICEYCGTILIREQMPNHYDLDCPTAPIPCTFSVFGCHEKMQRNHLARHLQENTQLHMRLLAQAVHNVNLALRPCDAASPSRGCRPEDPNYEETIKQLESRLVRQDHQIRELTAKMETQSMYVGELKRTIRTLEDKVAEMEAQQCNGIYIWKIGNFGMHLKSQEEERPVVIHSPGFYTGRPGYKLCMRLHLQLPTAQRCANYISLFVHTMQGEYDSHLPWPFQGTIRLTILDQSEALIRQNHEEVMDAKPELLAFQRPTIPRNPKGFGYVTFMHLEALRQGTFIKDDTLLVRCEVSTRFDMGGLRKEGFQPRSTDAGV
In words: pull-down.

Experiment [2] has as its target T2, GST-TRAF6cc-c (mouse) (UniProt P70196).
T2 sequence: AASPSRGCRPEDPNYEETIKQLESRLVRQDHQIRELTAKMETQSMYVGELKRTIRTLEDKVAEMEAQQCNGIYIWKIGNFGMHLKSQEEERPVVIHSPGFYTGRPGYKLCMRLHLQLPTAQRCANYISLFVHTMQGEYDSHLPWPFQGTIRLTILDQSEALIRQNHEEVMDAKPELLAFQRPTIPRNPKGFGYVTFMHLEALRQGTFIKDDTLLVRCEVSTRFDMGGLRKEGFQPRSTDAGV
Briefly: pull-down.

In experiment [3] the target is Np55-GFP. In words: co-IP.
Experiment [4] has as its target Np55DDEP(-)-GFP. In words: co-IP.
In experiment [5] the target is Np65-GFP (UniProt P97546). In words: co-IP.

These are yes or no findings as the source states them, for the method shown. In cells and extracts the contact can be indirect. A result given as binding can be weak or reduced; the word gives no strength. Where a sequence is shown, tags or fusion partners need not be part of it.

Turning to Np65-GFP (from UniProt P97546-2), the binding entry in experiment [1] and in experiment [2] was “binds” each time.

B1: Flag-TRAF6 (protein, UniProt P70196 1-530)
chain: T1 sequence
Regarding B1, the binding entry in experiment [3], in experiment [4] and in experiment [5] was “binds” in each case.
